Reference: patent US7118886 (HSC RESEARCH AND DEVELOPMENT LIMITED PARTNERSHIP, dated 2006)
Results are given in words; binding and its absence hold for the method and conditions named. Binding seen in cells or lysates may run through a third protein. Some results given as binding are weak or reduced against the parent protein; the word gives no strength.

Columns and labels:
[1] = biological target: T1, Full length mouse Eps15 expressed from pcDNA3Eps15 (mouse) (UniProt P42567); assay: co-immunoprecipitation and western blot, legend of FIG. 3B
T1 sequence (looked up): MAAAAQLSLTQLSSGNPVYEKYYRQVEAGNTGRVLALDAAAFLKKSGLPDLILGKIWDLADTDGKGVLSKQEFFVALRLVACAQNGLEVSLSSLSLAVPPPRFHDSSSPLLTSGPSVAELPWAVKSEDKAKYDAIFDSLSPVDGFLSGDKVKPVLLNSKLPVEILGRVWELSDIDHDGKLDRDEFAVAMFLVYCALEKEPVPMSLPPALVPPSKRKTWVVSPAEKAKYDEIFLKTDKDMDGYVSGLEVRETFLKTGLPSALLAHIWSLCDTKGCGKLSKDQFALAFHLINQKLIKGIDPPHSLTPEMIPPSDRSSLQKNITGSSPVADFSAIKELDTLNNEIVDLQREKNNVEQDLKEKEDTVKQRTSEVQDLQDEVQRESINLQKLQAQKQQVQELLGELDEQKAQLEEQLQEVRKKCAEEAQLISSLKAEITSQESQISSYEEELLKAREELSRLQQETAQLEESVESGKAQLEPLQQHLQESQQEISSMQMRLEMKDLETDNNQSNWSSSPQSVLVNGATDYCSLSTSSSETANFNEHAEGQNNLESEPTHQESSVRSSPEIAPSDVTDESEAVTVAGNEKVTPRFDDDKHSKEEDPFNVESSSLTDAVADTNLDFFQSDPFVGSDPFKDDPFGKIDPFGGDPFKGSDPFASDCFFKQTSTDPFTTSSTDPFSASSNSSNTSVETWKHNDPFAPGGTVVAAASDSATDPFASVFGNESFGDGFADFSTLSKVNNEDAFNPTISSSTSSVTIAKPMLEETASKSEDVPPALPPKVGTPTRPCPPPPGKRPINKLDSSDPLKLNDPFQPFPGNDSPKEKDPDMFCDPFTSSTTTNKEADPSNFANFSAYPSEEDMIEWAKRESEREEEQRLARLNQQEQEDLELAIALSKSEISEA

[2] = biological target: T1, Full length mouse Eps15 expressed from pcDNA3Eps15 (mouse); assay: co-immunoprecipitation from co-transfected Cos-1 cells, western blot with chicken anti-Ese1

B1: C-terminally truncated Ese1 (amino acids 1-736) expressed from pcDNA3Ese1δC (protein)
chain: MAQFPTPFGGSLDVWAITVEERAKHDQQFLSLKPIAGFITGDQARNFFFQSGLPQPVLAQIWALADMNNDGRMDQVEFSIAMKLIKLKLQGYQLPSTLPPVMKQQPVAISSAPAFGIGGIASMPPLTAVAPVPMGSIPVVGMSPPLVSSVPPAAVPPLANGAPPVIQPLPAFAHPAATWPKSSSFSRSGPGSQLNTKLQKAQSFDVASAPPAAEWAVPQSSRLKYRQLFNSHDKTMSGHLTGPQARTILMQSSLPQAQLASIWNLSDIDQDGKLTAEEFILAMHLIDVAMSGQPLPPVLPPEYIPPSFRRVRSGSGMSVISSSSVDQRLPEEPSSEDEQQPEKKLPVTFEDKKRENFERGSVELEKRRQALLEQQRKEQERLAQLERAEQERKERERQEQEAKRQLELEKQLEKQRELERQREEERRKEIERREAAKRELERQRQLEWERNRRQELLNQRNKEQEGTVVLKARRKTLEFELEALNDKKHQLEGKLQDIRCRLATQRQEIESTNKSRELRIAEITHLQQQLQESQQMLGRLIPEKQILSDQLKQVQQNSLHRDSLLTLKRALEAKELARQQLREQLDEVERETRSKLQEIDVFNNQLKELREIHSKQQLQKQRSLEAARLKQKEQERKSLELEKQKEDAQRRVQERDKQWLEHVQQEEQPRPRKPHEEDRLKREDSVRKKEAEERAKPEMQDKQSRLFHPHQEPAKLATQAPWSTTEKGPLTISAQE
- binding [1]: binds
- binding [2]: binds
